The record followed here is PMC4626869, “Subcellular trafficking of guanylyl cyclase/natriuretic peptide receptor-A with concurrent generation of intracellular cGMP” (Bioscience Reports, 2015).

By UniProt entry, the sequences of proteins in these tests, tags left out. Residues count along the entry.
UniProt Q15075: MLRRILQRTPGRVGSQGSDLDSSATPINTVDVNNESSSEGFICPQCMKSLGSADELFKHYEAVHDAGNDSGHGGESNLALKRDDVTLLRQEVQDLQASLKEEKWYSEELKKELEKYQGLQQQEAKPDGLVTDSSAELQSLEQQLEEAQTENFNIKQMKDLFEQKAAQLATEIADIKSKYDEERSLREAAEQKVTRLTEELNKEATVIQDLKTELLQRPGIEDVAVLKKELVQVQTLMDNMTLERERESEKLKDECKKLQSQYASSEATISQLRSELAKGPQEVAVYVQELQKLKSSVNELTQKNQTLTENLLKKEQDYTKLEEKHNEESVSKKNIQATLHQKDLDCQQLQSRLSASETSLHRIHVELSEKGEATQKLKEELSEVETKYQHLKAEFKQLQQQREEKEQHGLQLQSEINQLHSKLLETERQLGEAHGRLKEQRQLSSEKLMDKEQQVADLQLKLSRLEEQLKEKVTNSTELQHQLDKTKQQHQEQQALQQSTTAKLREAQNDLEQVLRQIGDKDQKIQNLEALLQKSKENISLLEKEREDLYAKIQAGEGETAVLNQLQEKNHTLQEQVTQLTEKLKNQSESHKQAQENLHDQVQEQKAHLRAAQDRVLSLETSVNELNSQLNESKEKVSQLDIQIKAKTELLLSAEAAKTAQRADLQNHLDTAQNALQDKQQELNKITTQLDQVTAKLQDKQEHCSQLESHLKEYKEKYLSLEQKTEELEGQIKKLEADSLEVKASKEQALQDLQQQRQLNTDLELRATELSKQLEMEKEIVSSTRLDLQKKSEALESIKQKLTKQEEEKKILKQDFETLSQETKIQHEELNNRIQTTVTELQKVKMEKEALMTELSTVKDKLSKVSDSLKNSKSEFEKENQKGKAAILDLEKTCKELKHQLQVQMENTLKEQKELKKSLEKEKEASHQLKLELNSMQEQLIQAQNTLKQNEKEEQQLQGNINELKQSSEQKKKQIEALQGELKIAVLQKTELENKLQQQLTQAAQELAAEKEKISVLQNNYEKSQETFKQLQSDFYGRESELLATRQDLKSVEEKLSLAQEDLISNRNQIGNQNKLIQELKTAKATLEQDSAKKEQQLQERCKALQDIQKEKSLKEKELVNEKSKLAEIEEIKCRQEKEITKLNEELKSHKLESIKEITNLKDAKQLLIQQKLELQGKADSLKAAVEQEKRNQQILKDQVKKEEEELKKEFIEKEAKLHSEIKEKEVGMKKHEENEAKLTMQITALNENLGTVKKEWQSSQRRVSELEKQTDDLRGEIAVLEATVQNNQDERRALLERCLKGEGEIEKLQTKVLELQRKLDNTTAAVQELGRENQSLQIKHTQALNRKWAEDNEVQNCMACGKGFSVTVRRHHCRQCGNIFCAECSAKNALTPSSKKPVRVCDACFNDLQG
UniProt P18293, residues 29-1057: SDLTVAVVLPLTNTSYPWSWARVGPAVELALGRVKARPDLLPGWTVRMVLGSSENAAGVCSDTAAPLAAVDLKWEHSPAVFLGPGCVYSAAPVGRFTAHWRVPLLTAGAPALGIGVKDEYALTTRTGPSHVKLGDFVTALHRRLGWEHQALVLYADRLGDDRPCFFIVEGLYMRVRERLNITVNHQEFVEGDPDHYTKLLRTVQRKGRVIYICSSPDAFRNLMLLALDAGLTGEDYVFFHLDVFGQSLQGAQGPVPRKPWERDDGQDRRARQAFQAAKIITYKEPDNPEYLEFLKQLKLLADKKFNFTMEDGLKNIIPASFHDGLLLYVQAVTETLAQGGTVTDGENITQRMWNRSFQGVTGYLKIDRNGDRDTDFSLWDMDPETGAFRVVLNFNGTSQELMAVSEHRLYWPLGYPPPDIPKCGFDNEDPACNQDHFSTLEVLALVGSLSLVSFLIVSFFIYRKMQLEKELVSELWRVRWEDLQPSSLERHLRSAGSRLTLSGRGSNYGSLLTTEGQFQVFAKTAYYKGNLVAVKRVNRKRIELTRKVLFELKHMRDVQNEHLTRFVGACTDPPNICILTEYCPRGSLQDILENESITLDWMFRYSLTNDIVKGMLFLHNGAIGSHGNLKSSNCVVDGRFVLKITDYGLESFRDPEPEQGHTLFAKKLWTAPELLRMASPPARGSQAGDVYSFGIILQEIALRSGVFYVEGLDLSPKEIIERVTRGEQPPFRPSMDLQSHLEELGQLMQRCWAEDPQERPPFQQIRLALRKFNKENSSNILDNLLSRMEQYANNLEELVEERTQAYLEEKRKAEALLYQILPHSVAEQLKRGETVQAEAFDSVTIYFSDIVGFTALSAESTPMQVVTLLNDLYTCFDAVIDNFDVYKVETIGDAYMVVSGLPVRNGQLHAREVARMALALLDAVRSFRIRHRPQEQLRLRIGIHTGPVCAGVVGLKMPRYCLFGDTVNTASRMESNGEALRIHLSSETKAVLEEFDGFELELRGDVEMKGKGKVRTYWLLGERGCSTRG

In assay [1] the target is early endosome antigen-1 (EEA-1) (human (endogenous in HEK-293)) (UniProt Q15075). The assay is described as follows: co-IP; HEK-293 cells stimulated with 100 nM ANP for 5, 10, 15 and 30 min; 500 μg of DDM-solubilized membranes or cytosolic fraction incubated with 4 μg of primary antibody (pan-cadherin, EEA-1, LAMP-1 or Rab 11) and protein A/G agarose at 4°C; immunoblot of NPRA. Background: In western blotting, separated proteins are transferred to a membrane and probed.

The target of assay [2] is T1, lysosome-associated membrane protein-1 (LAMP-1) (human (endogenous in HEK-293)) (UniProt P11279).
T1 sequence: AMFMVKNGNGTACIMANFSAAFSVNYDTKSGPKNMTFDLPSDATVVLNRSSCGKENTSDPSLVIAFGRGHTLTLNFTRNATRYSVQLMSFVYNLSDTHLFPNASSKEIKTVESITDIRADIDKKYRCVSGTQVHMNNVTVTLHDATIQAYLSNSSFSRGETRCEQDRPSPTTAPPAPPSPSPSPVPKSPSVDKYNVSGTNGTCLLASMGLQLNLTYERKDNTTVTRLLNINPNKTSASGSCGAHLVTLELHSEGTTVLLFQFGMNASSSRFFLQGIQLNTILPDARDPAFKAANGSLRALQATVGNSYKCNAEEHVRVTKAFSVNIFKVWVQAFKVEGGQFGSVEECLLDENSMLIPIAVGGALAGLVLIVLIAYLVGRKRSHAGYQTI
Described as above.

No constants are given. Whether binding was seen depends on the method and setting. Binding seen in cells or lysates may run through a third protein. Some results given as binding are weak or reduced against the parent protein; the word gives no strength.

Turning to “enhanced GFP-tagged guanylyl cyclase/natriuretic peptide receptor-A (eGFP–NPRA fusion protein) (from UniProt P18293 29-1057)”, the binding result in assay [1] and in assay [2] was “binds” in each case.
